Primary screen of a compound library

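Viability assay of Plasmodium falciparum sporozoites; the read-out is not stated. The concentration is filed as 10 mM, unlikely as a test dose, so the dose is not known. Direction is inferred from retests: higher values go with lower viability. Strong results were mostly tested again. Of about 34,000 compounds tested this way, about 280 (0.84%) reached 50% or more in at least one test.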

Each number is a percent effect as filed.
The record does not define 0% and 100%; most values in the screen are far below 50% and negative numbers occur (in some assays of this library far below -100).
This is an unselected part of the compounds tested.
Two or more numbers in one place are separate tests of the same structure; such repeats can differ widely.

compound: CCc1c(C)nn2c(O)cc(C3CCN(C(=O)c4cnn(C)c4)C3)nc12 (centres unmarked)
effect: 5.903%

compound: O=C(O)C(F)(F)F.[H][C@@]12CCN(Cc3ccc4c(c3)OCO4)C[C@]1(C(=O)NC)CCO2
effect: 16.46%

compound: Cn1nnc2c1CCN(Cc1nccs1)C2COCc1ccccc1.O=C(O)C(F)(F)F (centres unmarked)
effect: -15.11%

compound: COCc1ncn2c1CN(C(=O)Nc1cccc(OC)c1)CC2
effect: 8.505%

compound: Cc1ccccc1CC(C)NCc1c(C)nn(C)c1N1CCOCC1.Cl (centres unmarked)
effect: -13.44%

compound: Cc1noc(C)c1CN1CCCC(c2noc(C3CC3)n2)C1 (centres unmarked)
effect: 2.189%

compound: O=C(C1CCCCC1)N1CCC(n2nc(-c3ccco3)ccc2=O)CC1
effect: -0.1963%

compound: Cc1cc(CN2CCCC(C)(CO)C2)ccc1F (centres unmarked)
effect: -5.075%

compound: CC(C)c1nn(C)c(N(C)C)c1CNC(C)c1ccc2c(c1)OCO2.Cl (centres unmarked)
effect: 6.732%

compound: COCCN1CCC2(CC1)CC(N1CCOCC1)c1ccc(C)cc12.O=C(O)C(F)(F)F.O=C(O)C(F)(F)F (centres unmarked)
effect: 8.092%

compound: CC(C)c1nc(C2CCCN2Cc2ccon2)no1 (centres unmarked)
effect: -0.4554%

compound: [H][C@@]12C[C@@H](O)CN1C[C@H](Cc1ccccc1)N(Cc1cnc(CC)nc1)C2
effect: 4.439%

compound: CCc1cnc(CNC(=O)NC2CC(C)(C)OC2(C)C)s1 (centres unmarked)
effect: 5.438%

compound: CNC(=O)NC(=O)CCN1CCN(c2ccc(C(=O)OC)cc2)CC1C (centres unmarked)
effect: 0.8633%

compound: Cn1ncc2c1CCCN(C(=O)C1CCC1)C2
effect: 0.8669%

compound: C=C(C)COc1cccc(CNC(CC(C)C)c2ncnn2C)c1 (centres unmarked)
effect: -18.68%

compound: [H][C@]12CC[C@](O)(c3ccc(C)cc3)[C@@]1([H])CN(S(=O)(=O)C(C)C)C2
effect: -2.528%

compound: Cn1cnc(S(=O)(=O)NCCCN2CCOCC2)c1Cl
effect: 2.56%

compound: O=C(NCCn1nc2ccccn2c1=O)c1cc(-c2ccccc2)[nH]n1
effect: -3.088%

compound: Cc1cc(C)nc(Nc2cccc(C3CCCN(S(C)(=O)=O)C3)n2)n1 (centres unmarked)
effect: -1.439%

compound: CCCC(O)CN1CC(C)(C)CN(C(=O)c2ccccc2)CC1=O (centres unmarked)
effect: 3.923%

compound: Cc1nn(C)cc1-c1cc(C(=O)NCC(C)(C)c2ccccc2F)n[nH]1
effect: -1.683%

compound: COCCN(C)CCN1CC2(CCN(C3CCCNC3)CC2)OC1=O (centres unmarked)
effect: -13.6%

compound: COc1cccc(CNC(=O)CN2CCCCC2Cn2cccn2)c1 (centres unmarked)
effect: 7.861%

compound: COCC(=O)NC(C)c1cccc(Br)c1 (centres unmarked)
effect: 13.67%

compound: COCC(=O)NCc1cc(=O)n2c(n1)CN(Cc1nccs1)CCC2
effect: 6.078%

compound: CNc1cccc(CC2COCCN(C(=O)c3cncs3)C2)n1 (centres unmarked)
effect: 0.6475%

compound: CN1N=C(C(=O)N2CCCC(CCc3c(F)cccc3F)C2)CCC1=O (centres unmarked)
effect: -7.647%

compound: CNc1nccnc1C1CN(C(=O)c2cc[nH]n2)CCO1 (centres unmarked)
effect: 8.589%

compound: [H][C@@]12COC[C@]1(COc1nccc(C)n1)CN(C(=O)c1ccnn1C)C2
effect: 23.42%

compound: COc1ccc(C(=O)N(C)Cc2nnc3ccccn23)c(OC)c1OC
effect: 4.388%

compound: CCN1CCC2(CCC1=O)CN(C1CCOCC1)CCN2C (centres unmarked)
effect: -19.23%

compound: OC(COCc1ccccc1Cl)CN1CCC(c2ccn[nH]2)CC1 (centres unmarked)
effect: 4.436%

compound: Cc1cc(Nc2nc(C)cs2)nc(C2CCCCN2CCO)n1 (centres unmarked)
effect: -2.488%

compound: c1cc(NC2CC3(CCN(Cc4cscn4)C3)C2)ncn1 (centres unmarked)
effect: 0.4439%

compound: CN(Cc1ccccn1)C1CCCN(c2cccnn2)C1 (centres unmarked)
effect: 1.03%

compound: CN(C)CC1(O)CCN(S(=O)(=O)c2cccc(F)c2)C1 (centres unmarked)
effect: 3.131%

compound: [H][C@@]12CS(=O)(=O)C[C@]1([H])N(C(=O)c1ccc(Cl)cn1)CCN2CCC
effect: 12.24%

compound: Cc1cc(CC(=O)N(C)Cc2cccc(OC(C)C)c2)n[nH]1
effect: -16.79%

compound: CC(=O)NCCNC(=O)c1sc(-c2ccc(Cl)cc2)nc1C
effect: 1.34%

compound: CC(=O)Nc1nc(C(=O)NCc2ccc(N3CCOC(C)C3)nc2)cs1 (centres unmarked)
effect: 13.32%

compound: Cc1noc(C2CCC3(CCN(C(=O)c4ccn(C)n4)CC3)O2)n1 (centres unmarked)
effect: -3.772%

compound: O=S(=O)(Cc1ccccc1Cl)NC(CO)c1ccco1 (centres unmarked)
effect: -5.486%

compound: Cc1nn(C)c(Cl)c1C1CCCN1CC(=O)NCc1ccccn1 (centres unmarked)
effect: -15.04%

compound: CCCNC(=O)c1nc2c(o1)CN(C(C)=O)C2
effect: 7.744%

compound: CC(C)n1ncc2cc(NC(=O)N3CCC(CO)CC3)cnc21
effect: 1.248%

compound: CC(=O)c1ccc(N2CCCC(CO)(Cc3ccccc3F)C2)nc1 (centres unmarked)
effect: 1.667%

compound: CCc1onc(C)c1C(=O)N1CCN(c2ncc3c(n2)CCOC3)CC1.Cl
effect: -1.604%

compound: COCCCNc1c(-c2ccc(C)cc2)c(=O)c1=O
effect: -0.9848%

compound: Cc1cccc(NC(=O)[C@@H]2CCCN2Cc2nnc(C(C)C)n2C)n1
effect: -14.46%

compound: Cc1nnc2n1CCN(C(=O)c1cc(C)n(-c3ccccc3)c1C)C2
effect: 80.6% and 90.57% and 75.3%

compound: Cc1csc(C(Cc2ccsc2)NC(=O)c2cc(=O)n(C)c(=O)n2C)n1 (centres unmarked)
effect: -5.37%

compound: O=C(NCCCn1ccnc1)N1CCCC1c1ccncc1 (centres unmarked)
effect: -9.657%

compound: CC(C)CN1CC2(CCN(C(=O)C3CSC(C)(C)C(=O)N3)CC2)CC1=O (centres unmarked)
effect: -7.291% and -12.57%

compound: CC1c2ncc(Cn3cncn3)n2CCN1C(=O)c1cscn1 (centres unmarked)
effect: 3.204%

compound: CNC(=O)c1ccc(C2CN(C(=O)c3scnc3C)CCO2)nc1 (centres unmarked)
effect: -3.598%

compound: COc1ncnc(N(C)C)c1NC(=O)c1cscc1C
effect: -11.09%

compound: Cc1cc(C(=O)NCC(c2ccsc2)N(C)C)no1 (centres unmarked)
effect: -7.881%

compound: Cc1ccc2cccc(C(=O)N3CCN(c4cccnn4)CC3)c2n1
effect: -1.338%

compound: CC(=O)N1CCN(Cc2csc(-c3cnn(C)c3)n2)CC1
effect: 2.803%

From ChEMBL document CHEMBL3988442, “University of Dundee, Small-Polar-MMV Screening Library” (2021).